Laboratory results: patent US9440933B2, “Azole derivative, method for producing same, intermediate compound, and agricultural or horticultural chemical agent and industrial material protecting agent” (KUREHA CORPORATION, priority 2011, dated 2016)
Some of these results come from one statement about several compounds together.

Test system: wheat leaf blight-causing microbe
Test: Antimicrobial activity to wheat leaf blight-causing microbe (PDA plate, hyphal expansion inhibition)
Type: cell-based, Septoria tritici
Details: test sample concentration 1.25 mg/L; PDA medium, 25° C., 14 days
Method: In this Test Example, antimicrobial activity of the inventive compounds to wheat leaf blight-causing microbe was determined and compared with that of the comparative compound (1).

C#CCOC(=O)[C@]1(C)CC[C@@H](Cc2ccc(Cl)cc2)[C@]1(O)Cn1cncn1 (racemic) [Compound I-5, 2-propynyl-(1RS,2RS,3SR)-3-(4-chlorobenzyl)-2-hydroxy-1-methyl-2-(1H-1,2,4-triazol-1-ylmethyl)cyclopentanecarboxylate]
hyphal expansion-inhibiting rate: ≥ 80%
